Laboratory results reported in PubChem BioAssay AID1347423 (Functional Genomics Laboratory (NCATS/FGL), 2020).
About 210 (0.4%) of roughly 52,000 sequences were called active.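 How the source made its calls: active means gene whose silencing raises cell survival under the drug, median off-target-corrected z-score across its silencing RNAs 2 or more; inactive means the rest.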 The list shows a part of the results.

assay: Resistance to Poly (ADP-Ribose) Polymerase inhibitor: Gene Identification via Genome-wide siRNA Screen; settings: mouse BRCA2 R2336H ES cells, olaparib, CellTiter-Glo viability; stronger effect = higher value
In short: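 Mouse BRCA2 R2336H ES cells were reverse-transfected with siRNA (20 nM final), treated at 48 h with 500 nM olaparib, and read by CellTiter-Glo after 72 h. Scores: MAD-based z per siRNA, median per gene, seed off-target correction.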

Sequence	z-score
GGAAUGUUAAUGAUGCAGATT against Nmb	inactive: -0.521
GGUUUGUGUCCAGCUGCUUTT against Olfr502	inactive: -1.96
GGCGAAAAUAAGUUGAAAATT against Bhlhb5	inactive: 0.915
GGAGAAACAGUUGUCAACUTT against 4930535B03Rik	inactive: -1.57
GGGAUUGUGAAUUUCAUGUTT against Gca	inactive: -0.598
GCCAGAGAUUCCUCAACGATT against Rpp21	inactive: -0.37
GGCCUUUACACGUGAGUCUTT against B230312I18Rik	inactive: 0.962
GGGUGGUUUUAGUGUACUATT against Mrgpra7	inactive: -1.14
CCUUCAGUGCUGUAGUGUATT against Rasl10b	inactive: 0.108
GGGAGAGAAAUCCCAUUCUTT against Bsnd	inactive: -0.446
CGCGAACUCUCCCUUACUUTT against 4931440L10Rik	inactive: 0.958
GGCUACAGGGAACAUAGAGTT against Map17	inactive: -0.439
CGCCAUCAAAUAUGAAGCATT against Vps4a	inactive: -0.298
GGCAACGGAAGAAAAUUAATT against 4930429B21Rik	inactive: -0.82
GGUUCUAUUUGUGAAAAGUTT against Adam10	inactive: 0.789
GGAUGCUGGCUGAUUUUCUTT against Olfr1019	inactive: -0.876
GGAAUUUGGUCUAUGCUUGTT against Stra6	inactive: -0.0623
CCUCGAUAUGAGUUUUUGATT against 9130413I22Rik	inactive: 0.603
GGAUGCUAAAAAUGCGGGATT against LOC223706	inactive: -0.125
CCUUAUUUGCUUAUCAUAGTT against Zfp367	inactive: -0.551
GGACAUCUGACAUCCAGUGTT against Pmvk	inactive: -0.7
CGAAAAUCGAGAAUUCUUCTT against Nalp9b	inactive: 0.292
CCAUCCUAAAGAAUGUUAATT against Nf1	inactive: -2.13
GGAAUUUAAGCAGAAUGUGTT against Fcho1	inactive: -0.603
GGAGCUGUGCGGUCUGUUATT against 0610009K11Rik	inactive: -0.572
GGACAUCGAAGUCCAACACTT against Plekhm1	inactive: 1.35

Sequence	z-score
GGUUGUAGGAAUAAUUGAATT against Nup160	inactive: -1.59
CCAACUAAGAUGGAUCAAUTT against Commd2	inactive: -0.097
GGAAGCCAAUGUCAAGUGCTT against Cbx1	inactive: -0.293
GGACAUCAUUGAUGGAUUUTT against D830032G16Rik	inactive: 1.15
GCCUGACGAAGGUUUCUAUTT against Neo1	inactive: 0.0676
GGAACAGACAUAUAAGCAUTT against Blvra	inactive: 0.882
GCACUUACACUCUGUUUAATT against Fgf13	inactive: -0.219
GGAGAACUGUAAAUAAACUTT against 9030623N16Rik	inactive: -0.203
GCCCUCAGGUGGUUCUUAATT against C030036P15Rik	inactive: -1.76
GCUCAUCUUAUCCUCUAAGTT against Cts7	inactive: -0.231
GGUACGACUUGGAAGAAAUTT against Rock2	inactive: -0.0405
CCACUAGCUAUCUCAUACCTT against Tktl1	inactive: 0.385
GGUGAAAUUGCUCAGAUAATT against 4430402O11Rik	inactive: -0.162
GGCAUCACUUUCUUUCCUUTT against D230019K24Rik	inactive: 0.115
GGAUUUUCCAGCCAAGGAATT against 4122402O22Rik	inactive: -0.488
GGCUUUUUGAGGUAUUUCATT against 9630008K15Rik	inactive: -1.8
GGUUCCAACAAUUGUAAAGTT against Chl1	active: 2.35
CCGGCAAUGACUGUGAAUCTT against Adamts7	inactive: 0.0748
GGAUCCAUCUGUUGGCAACTT against Slc5a2	inactive: 0.167
CCUCCUGAUAUCGAGUUCCTT against Dnm1	inactive: 0.281
GGAUCACAACAAAAUAUCCTT against LOC622129	inactive: 0.262
GCAUCGAUCUUGAGUUAGATT against Hebp1	inactive: -0.48
CCUGUAUUGGGAACAAUGUTT against 2900006N09Rik	inactive: -0.823
GGACUGAAGCUUACUUUCUTT against E230011A21Rik	inactive: -2.1
GCUAUCUCUGCUAAUAAAGTT against Col6a1	inactive: 1.05
GGAAGAAAAGUCUCAGAAATT against 1200016B10Rik	inactive: 0.8

Quoted from the listing.
z-score, GGAAGCCAAUGUCAAGUGCTT against Cbx1 is entered as inactive: -0.293
z-score, GGCUUUUUGAGGUAUUUCATT against 9630008K15Rik is entered as inactive: -1.8
z-score, GCAUCGAUCUUGAGUUAGATT against Hebp1 is entered as inactive: -0.48
z-score, CCAACUAAGAUGGAUCAAUTT against Commd2 is entered as inactive: -0.097
z-score, GCUAUCUCUGCUAAUAAAGTT against Col6a1 is entered as inactive: 1.05
z-score, GGAAGAAAAGUCUCAGAAATT against 1200016B10Rik is entered as inactive: 0.8
z-score, GGAGAACUGUAAAUAAACUTT against 9030623N16Rik is entered as inactive: -0.203

The listing continues:

Sequence	z-score
GCCUCAUUUGAUCAAUGUCTT against Actr2	inactive: 0.802
GGCCGUAUGUGAAUUUGAATT against Tnfaip6	inactive: -0.201
GGCUUAAAAUGUUAGUGAATT against 1110014F12Rik	inactive: 1.37
GGAAAAAAGUUCAUCGUGGTT against Kcnma3	inactive: 0.385
GGCCGUUAUGUUUUACAAGTT against 1810055D05Rik	inactive: 0.396
GGCUUAAGGGAAUAUUUUCTT against Tmem14a	inactive: 0.488
GCUUUAUUAACCCAUCAAATT against BC028975	inactive: 1.87
GGCCUAAAUUGACAAACUUTT against Mgea5	inactive: 0.366
GGUAUUAUGAUCAGAUUUGTT against Pdcd6ip	inactive: 0.326
CCAUGACAAUGAAUAUCCUTT against 1700025F22Rik	inactive: 1.21
GGUUGUCAAGGCUGCUCAUTT against MGI:1915703	inactive: -1.17
GGAAAUACUAUGUUUGACUTT against Gja5	inactive: 0.449
AGGAAUCCUCUAAAUGACCTT against V1rd22	inactive: -1.55
GGAAAACAAGUGGAAAGGGTT against C130071C03Rik	inactive: -0.121
GGGUGAUAAUGAGUCUACCTT against Pja1	inactive: 0.794
GGACAAUACGGAGAAAGAUTT against Kdt1	inactive: -1.46
GGAAAAAGAAUUGAGAGCUTT against Dhx15	inactive: 0.633
GCAACAAGCCUAGCUAAUCTT against A630038E17Rik	inactive: 0.751
GGCAAUUCAUUGCAUGUUATT against Cdc42ep3	inactive: 0.422
GGAACUCUCAGAUCUGAUUTT against Ppl	inactive: -0.382
GGUGAUAGUACUGUCAGCCTT against Olfr1225	inactive: 0.0798
GGGACCAGAGGAAACAGAATT against Tnfsf13b	inactive: -1.57
GGCUUUCGUGUUUUCAGUUTT against 4921524J17Rik	inactive: -0.618
GCACCUGAAGACUAAUGUUTT against Gcnt2	inactive: -0.566
GGCCAAAAAUUUCAUCUCUTT against Itgae	inactive: 0.132
CCAAAACAACCACAAGUAGTT against A930006D11	inactive: -2.39

Sequence	z-score
CCAUGACACUCAUUCCCAGTT against Tbc1d7	inactive: 0.258
GCCCAAAUUGGGUUCAUCATT against Pde9a	inactive: -1.25
GCGCACCGUCAAAGUGAAATT against Atp5o	inactive: -1.08
GGAACAACCACGGAACCCATT against Il1r2	inactive: -0.502
CGAGAUUGUGGAUAGCUUUTT against Eif4a1	inactive: -1.53
GGCUAUGGCUUUUGUAUGUTT against 2610034B18Rik	inactive: 0.307
GGAGUUUUGAAUAAACCAATT against Tmc7	inactive: -2.15
CGACUUCGUCAUAAGAAUATT against Map3k6	inactive: 0.322
GGUUGAUGAAGCUAAUUUATT against Ube2l3	inactive: -0.039
GGAUUCAGGCUGGAAAAUATT against Ush3a	inactive: -1.84
GGUGAAGCUGCUGAGAAAGTT against Angptl1	inactive: 0.0785
GGCUGCAUCUAUAACAUAATT against Olfr611	inactive: -0.352
CGCAUUACAAUUCAUCAUCTT against Rnf170	inactive: -0.759
GGUCCUAGAGAAUCUCCAGTT against Tst	inactive: -2.54
CCAAGUAACAGUUUAGUAGTT against Nme5	inactive: 1.13
GCUUAAUCGAACCAGAGUGTT against 2610524H06Rik	inactive: 0.477
GGGAAAUGCACUUAAAUGATT against Tnrc9	inactive: 0.242
GUCACGAGAUUCAAGAUGUTT against Svs7	inactive: 0.0855
GAGGUCAUUCCACGACGGUTT against Prpmp5	inactive: 1.26
GGAAGUGGUCCACCUGAUCTT against Mms19l	inactive: -0.759
CCUUAAAAGUAACCACUGUTT against Slc6a6	inactive: -0.21
GCUGGAGACUACUACGUGCTT against Bex2	inactive: -0.0658
GACCACAAUAUUGAGGAUCTT against BC031441	inactive: -0.136
GGUGACUGAAAUCAAACACTT against Il9r	inactive: 0.769
CGAAUCCAUGAUAUUGUACTT against Dncl2b	inactive: -1.24
